# Laboratory results: PubChem BioAssay AID1224828 (NIAID, 2016)
# Purpose: 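Find genes required for NF-kappaB p65 moving into the nucleus after LPS in mouse macrophages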 (primary screen)
# Cell system: mouse RAW264.7 G9 macrophage reporter cells (GFP-p65, Tnf promoter-mCherry)
# Reagents: siRNA pool against mouse genes, 100 nM
# Time to read-out: 2 days siRNA transfection, then 40 min LPS before fixation
# Conditions: LPS (Salmonella minnesota R595) at 10 ng/ml
# Detection: 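Imaged p65 nuclear translocation ratio, normalised to the plate median, converted to robust z-scores and averaged across two replicates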
# Scale: p65 translocation robust z-score: higher = more nuclear NF-kappaB p65 after LPS than the plate median; nuclear/cytoplasmic p65 ratio: higher = more nuclear NF-kappaB p65
# Hit rule: 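Called active when z exceeds 3.3 or falls under -1.56 (median of Tlr4 controls), giving activity score of at least 50; no calls for control wells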
# Calls: active = hit (p65 shift raised or lowered); inactive = no clear change
# Shown is a random part of about 17,000 reagents tested. 762 of them (4.5%) count as active. 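Active calls include both raised and lowered p65 entry, mostly lowered; wells with fewer than 50 cells lack a z-score.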 The raw values are shown without normalisation. Entries without a mark were called inactive. Reagents against one gene are numbered here.
target gene,pool no.,p65 translocation robust z-score,"nuclear/cytoplasmic p65 ratio, rep 1","nuclear/cytoplasmic p65 ratio, rep 2",low cell count flag
"Wasf3 (WASP family, member 3)",1,-0.26,1.52,1.53,enough cells to score
Nanos2 (nanos C2HC-type zinc finger 2),1,-1.81 (active),1.53,1.28,enough cells to score
Fkbp5 (FK506 binding protein 5),1,0.38,1.46,1.44,enough cells to score
Or8h8 (olfactory receptor family 8 subfamily H member 8),1,-0.69,1.57,1.46,enough cells to score
"Kcnv2 (potassium channel, subfamily V, member 2)",1,1.01,1.61,1.51,enough cells to score
P3h4 (prolyl 3-hydroxylase family member 4 (non-enzymatic)),1,-0.36,1.39,1.49,enough cells to score
Ddx52 (DExD box helicase 52),1,-1.56,1.31,1.36,enough cells to score
Usp43 (ubiquitin specific peptidase 43),1,1.98,1.67,1.43,enough cells to score
Pvr (poliovirus receptor),1,0.01,1.49,1.34,enough cells to score
Pvr (poliovirus receptor),2,-1.04,1.4,1.34,enough cells to score
Ripk3 (receptor-interacting serine-threonine kinase 3),1,0.69,1.77,1.49,enough cells to score
Slc9b1,1,1.34,1.53,1.71,enough cells to score
Fdps (farnesyl diphosphate synthetase),1,-2.08 (active),1.09,1.2,enough cells to score
Vmn1r63 (vomeronasal 1 receptor 63),1,-0.14,1.48,1.17,enough cells to score
Hic1 (hypermethylated in cancer 1),1,-0.98,1.31,1.24,enough cells to score
Rbm34 (RNA binding motif protein 34),1,0.76,1.62,1.72,enough cells to score
Baiap2 (brain-specific angiogenesis inhibitor 1-associated protein 2),1,-0.55,1.52,1.55,enough cells to score
Sspo (SCO-spondin),1,1.03,1.53,1.35,enough cells to score
Preb (prolactin regulatory element binding),1,-0.06,1.47,1.42,enough cells to score
"Pou1f1 (POU domain, class 1, transcription factor 1)",1,-0.35,1.5,1.32,enough cells to score
Mical2,1,-0.39,1.51,1.6,enough cells to score
Gab2 (growth factor receptor bound protein 2-associated protein 2),1,0.77,1.41,1.59,enough cells to score
Srsf4 (serine and arginine-rich splicing factor 4),1,1.03,1.59,1.33,enough cells to score
Csmd1 (CUB and Sushi multiple domains 1),1,-0.73,1.4,1.74,enough cells to score
Defb10 (defensin beta 10),1,,1.4,1.32,fewer than 50 cells per well; well left out of scoring

A few values from the list:
Entry of Pou1f1 (POU domain, class 1, transcription factor 1) under “nuclear/cytoplasmic p65 ratio, rep 2”: 1.32
Value of Slc9b1 under “nuclear/cytoplasmic p65 ratio, rep 2”: 1.71
Preb (prolactin regulatory element binding), nuclear/cytoplasmic p65 ratio, rep 2 → 1.42
Pvr (poliovirus receptor) #1, nuclear/cytoplasmic p65 ratio, rep 2: 1.34
For “p65 translocation robust z-score”, Usp43 (ubiquitin specific peptidase 43) shows 1.98
Wasf3 (WASP family, member 3), nuclear/cytoplasmic p65 ratio, rep 1 = 1.52

The list goes on:
target gene,pool no.,p65 translocation robust z-score,"nuclear/cytoplasmic p65 ratio, rep 1","nuclear/cytoplasmic p65 ratio, rep 2",low cell count flag
Dnase1l1 (deoxyribonuclease 1-like 1),1,,1.15,1.42,fewer than 50 cells per well; well left out of scoring
Wnt11 (WNT family member 11),1,-0.34,1.62,1.41,enough cells to score
Tmx3 (thioredoxin-related transmembrane protein 3),1,-0.57,1.31,1.44,enough cells to score
"Metrnl (meteorin, glial cell differentiation regulator-like)",1,0.79,1.68,1.99,enough cells to score
"Tnfrsf17 (tumor necrosis factor receptor superfamily, member 17)",1,-0.68,1.41,1.44,enough cells to score
Zfp385a (zinc finger protein 385A),1,-0.48,1.36,1.19,enough cells to score
Emc4 (ER membrane protein complex subunit 4),1,0,1.44,1.42,enough cells to score
Tmed3 (transmembrane p24 trafficking protein 3),1,,1.31,1.44,fewer than 50 cells per well; well left out of scoring
Ly6a (lymphocyte antigen 6 family member A),1,,1.73,1.46,fewer than 50 cells per well; well left out of scoring
Ndufa13 (NADH:ubiquinone oxidoreductase subunit A13),1,-0.07,1.58,1.58,enough cells to score
Cngb3 (cyclic nucleotide gated channel beta 3),1,-0.06,1.26,1.37,enough cells to score
Arl4d (ADP-ribosylation factor-like 4D),1,0.71,1.62,1.81,enough cells to score
Arl4d (ADP-ribosylation factor-like 4D),2,-0.59,1.58,1.37,enough cells to score
Ccdc50 (coiled-coil domain containing 50),1,,1.21,1.1,fewer than 50 cells per well; well left out of scoring
Chd8 (chromodomain helicase DNA binding protein 8),1,3.75 (active),1.68,2.13,enough cells to score
"Zfand2b (zinc finger, AN1 type domain 2B)",1,0.37,1.6,1.49,enough cells to score
"Spint2 (serine protease inhibitor, Kunitz type 2)",1,-0.41,1.47,1.52,enough cells to score
"Igsf6 (immunoglobulin superfamily, member 6)",1,,1.55,1.39,fewer than 50 cells per well; well left out of scoring
"Nono (non-POU-domain-containing, octamer binding protein)",1,-0.07,1.71,1.51,enough cells to score
Speer4f1 (spermatogenesis associated glutamate (E)-rich protein 4F1),1,0.17,1.44,1.26,enough cells to score
Cflar (CASP8 and FADD-like apoptosis regulator),1,,1.1,1.34,fewer than 50 cells per well; well left out of scoring
Twsg1 (twisted gastrulation BMP signaling modulator 1),1,-0.83,1.28,1.4,enough cells to score
Pak4 (p21 (RAC1) activated kinase 4),1,,1.72,1.18,fewer than 50 cells per well; well left out of scoring
Acbd5 (acyl-Coenzyme A binding domain containing 5),1,-0.1,1.59,1.67,enough cells to score
Mtln (mitoregulin),1,,1.46,1.45,fewer than 50 cells per well; well left out of scoring
Vmn1r179 (vomeronasal 1 receptor 179),1,-0.27,1.14,1.2,enough cells to score
Gpbp1 (GC-rich promoter binding protein 1),1,0.14,1.4,1.45,enough cells to score
Agxt (alanine-glyoxylate aminotransferase),1,0.06,1.57,1.69,enough cells to score
"Dleu7 (deleted in lymphocytic leukemia, 7)",1,0.88,1.55,1.7,enough cells to score
Calm2 (calmodulin 2),1,1.34,1.73,1.9,enough cells to score
Bysl (bystin-like),1,-0.56,1.4,1.4,enough cells to score
Mbd4 (methyl-CpG binding domain protein 4),1,-0.27,1.36,1.35,enough cells to score
Ogn (osteoglycin),1,0.51,1.74,1.65,enough cells to score
"Rps4x (ribosomal protein S4, X-linked)",1,-0.27,1.56,1.4,enough cells to score
"Prim2 (DNA primase, p58 subunit)",1,0.35,1.55,1.45,enough cells to score
Tspan1 (tetraspanin 1),1,,1.48,1.42,fewer than 50 cells per well; well left out of scoring
Ccl5 (C-C motif chemokine ligand 5),1,-0.36,1.47,1.33,enough cells to score
"Zc3hc1 (zinc finger, C3HC type 1)",1,-1.38,1.5,1.32,enough cells to score
"Pitpna (phosphatidylinositol transfer protein, alpha)",1,-0.21,1.46,1.38,enough cells to score
"Hp1bp3 (heterochromatin protein 1, binding protein 3)",1,-0.15,1.55,1.54,enough cells to score
Or5m9b (olfactory receptor family 5 subfamily M member 9B),1,1.17,1.83,1.76,enough cells to score
Kif27 (kinesin family member 27),1,1.37,1.42,1.47,enough cells to score
Dll3 (delta like canonical Notch ligand 3),1,0.76,1.6,1.46,enough cells to score
Lrrc46 (leucine rich repeat containing 46),1,,0,1.56,fewer than 50 cells per well; well left out of scoring
"Etfdh (electron transferring flavoprotein, dehydrogenase)",1,0.64,1.6,1.4,enough cells to score
Nudt21 (nudix hydrolase 21),1,0.27,1.66,1.78,enough cells to score
Pik3ap1 (phosphoinositide-3-kinase adaptor protein 1),1,0.06,1.47,1.45,enough cells to score
"Aoc3 (amine oxidase, copper containing 3)",1,-1.05,1.48,1.49,enough cells to score
Pacsin2 (protein kinase C and casein kinase substrate in neurons 2),1,,1.35,1.2,fewer than 50 cells per well; well left out of scoring
Fam3d (FAM3 metabolism regulating signaling molecule D),1,2.03,2.01,1.84,enough cells to score
